Results on two sequences are retold here after publication PMC5503621.

Series [1] has as its system GST-OVOL2. Briefly: competition with a labelled probe. The following applies: unlabeled mutant vs labeled probe2; EMSA: Beyotime EMSA/Gel-Shift Binding Buffer, 10 uL, 2 nM labeled DNA, 5 nM protein, 25 C 30 min; native 4% PAGE in 0.5x …; salt and pH not stated; recombinant protein; protein details: GST; label: unlabeled competitor.
The test system of series [2] is GST-OVOL2. Briefly: EMSA. The following applies: EMSA: Beyotime EMSA/Gel-Shift Binding Buffer, 10 uL, 2 nM labeled DNA, 5 nM protein, 25 C 30 min; native 4% PAGE in 0.5x TBE; salt and pH not stated; recombinant protein; protein details: GST.

For at least one entry, the source does not settle the construct or the ends of the probe. No signal at the amounts used counts as a negative.

For “GTCGTCGCCGCTGCGGGGACGGAGCGGTTT (double strand) [mutated probe2]”, the binding result in series [1] is “no binding”.

On to “CTCGACAAGTTGGCAGCAACAACACGGCCC (double strand) [probe1 (oligo1, Smad4 promoter site 3)]”, for which, in series [2], the binding result is “no binding”.
